Publication PMC8267569, “Development of selective protease inhibitors via engineering of the bait region of human α2-macroglobulin” (The Journal of Biological Chemistry, 2021)
No constants are given. Whether binding was seen depends on the method and setting. Binding calls can cover weak binding; strength is not graded here.

Biological target: human matrix metalloprotease 2, activated (human)
Assay: native gel or EMSA; MMP2 added to A2M at 6:1 mol/mol MMP2:A2M in HBS with 10 mM CaCl2, 15 min at 37 °C, stopped with 20 mM EDTA; pore-limited native PAGE and reducing SDS-PAGE; both purified

- binding: binds
B1: recombinant wild-type human α2-macroglobulin (protein, UniProt P01023 24-1474)
chain: SVSGKPQYMVLVPSLLHTETTEKGCVLLSYLNETVTVSASLESVRGNRSLFTDLEAENDVLHCVAFAVPKSSSNEEVMFLTVQVKGPTQEFKKRTTVMVKNEDSLVFVQTDKSIYKPGQTVKFRVVSMDENFHPLNELIPLVYIQDPKGNRIAQWQSFQLEGGLKQFSFPLSSEPFQGSYKVVVQKKSGGRTEHPFTVEEFVLPKFEVQVTVPKIITILEEEMNVSVCGLYTYGKPVPGHVTVSICRKYSDASDCHGEDSQAFCEKFSGQLNSHGCFYQQVKTKVFQLKRKEYEMKLHTEAQIQEEGTVVELTGRQSSEITRTITKLSFVKVDSHFRQGIPFFGQVRLVDGKGVPIPNKVIFIRGNEANYYSNATTDEHGLVQFSINTTNVMGTSLTVRVNYKDRSPCYGYQWVSEEHEEAHHTAYLVFSPSKSFVHLEPMSHELPCGHTQTVQAHYILNGGTLLGLKKLSFYYLIMAKGGIVRTGTHGLLVKQEDMKGHFSISIPVKSDIAPVARLLIYAVLPTGDVIGDSAKYDVENCLANKVDLSFSPSQSLPASHAHLRVTAAPQSVCALRAVDQSVLLMKPDAELSASSVYNLLPEKDLTGFPGPLNDQDNEDCINRHNVYINGITYTPVSSTNEKDMYSFLEDMGLKAFTNSKIRKPKMCPQLQQYEMHGPEGLRVGFYESDVMGRGHARLVHVEEPHTETVRKYFPETWIWDLVVVNSAGVAEVGVTVPDTITEWKAGAFCLSEDAGLGISSTASLRAFQPFFVELTMPYSVIRGEAFTLKATVLNYLPKCIRVSVQLEASPAFLAVPVEKEQAPHCICANGRQTVSWAVTPKSLGNVNFTVSAEALESQELCGTEVPSVPEHGRKDTVIKPLLVEPEGLEKETTFNSLLCPSGGEVSEELSLKLPPNVVEESARASVSVLGDILGSAMQNTQNLLQMPYGCGEQNMVLFAPNIYVLDYLNETQQLTPEIKSKAIGYLNTGYQRQLNYKHYDGSYSTFGERYGRNQGNTWLTAFVLKTFAQARAYIFIDEAHITQALIWLSQRQKDNGCFRSSGSLLNNAIKGGVEDEVTLSAYITIALLEIPLTVTHPVVRNALFCLESAWKTAQEGDHGSHVYTKALLAYAFALAGNQDKRKEVLKSLNEEAVKKDNSVHWERPQKPKAPVGHFYEPQAPSAEVEMTSYVLLAYLTAQPAPTSEDLTSATNIVKWITKQQNAQGGFSSTQDTVVALHALSKYGAATFTRTGKAAQVTIQSSGTFSSKFQVDNNNRLLLQQVSLPELPGEYSMKVTGEGCVYLQTSLKYNILPEKEEFPFALGVQTLPQTCDEPKAHTSFQISLSVSYTGSRSASNMAIVDVKMVSGFIPLKPTVKMLERSNHVSRTEVSSNHVLIYLDKVSNQTLSLFFTVLQDVPVRDLKPAIVKVYDYYETDEFAIAEYNAPCSKDLGNA
